# Measurements reported in PubChem BioAssay AID1224829 (NIAID, 2016).
# Screen: 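Secondary check of hits that alter LPS-induced p65 translocation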 (follow-up of hits)
# System: mouse RAW264.7 G9 macrophage reporter cells
# Knock-down reagent: single siRNA against mouse genes, 100 nM
# Duration: 2 days of siRNA knock-down, then 40 min of LPS before fixing
# Treatment: LPS (Salmonella minnesota R595) at 10 ng/ml
# Read-out: 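High-content images after 40 min LPS exposure; GFP-p65 nucleus to surrounding ring signal ratio, normalised to plate median and non-targeting control wells, expressed as z-score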
# Reading the numbers: p65 translocation z-score and gene median z-score, per vendor: higher = more nuclear NF-kappaB p65 after LPS
# Call rule: 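Active means the replicate-mean z-score lies beyond plus or minus 2, in either direction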
# Meaning of the calls: active = changed p65 translocation (either direction); inactive = no clear change
# In all, the deposit lists about 3,800 reagents; this is a random part of them. 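Calls cover raised and lowered translocation; gene median uses one vendor's three siRNAs; qiagen siRNAs acted more weakly than ambion siRNAs.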 The numbers tell different reagents against one gene apart. No sequences are given here.
gene symbol,reagent,siRNA vendor or control pool,"p65 translocation z-score, replicate mean","p65 translocation z-score, replicate 1","p65 translocation z-score, replicate 2","gene median z-score, per vendor",outcome
Klf12 (Kruppel-like transcription factor 12),1,ambion single siRNA,2.73,3.67,1.79,-1.71,active
Klf12 (Kruppel-like transcription factor 12),2,ambion single siRNA,-1.92,-2.66,-1.17,-1.71,inactive
Klf12 (Kruppel-like transcription factor 12),3,ambion single siRNA,-3.73,-2.25,-5.2,-1.71,active
Neurod1 (neurogenic differentiation 1),1,ambion single siRNA,-2.42,-2.42,,-0.0444,active
Neurod1 (neurogenic differentiation 1),2,ambion single siRNA,1.93,2.81,1.05,-0.0444,inactive
Neurod1 (neurogenic differentiation 1),3,ambion single siRNA,-1.14,-1.14,,-0.0444,inactive
Neurod1 (neurogenic differentiation 1),4,qiagen single siRNA,1.15,1.5,0.799,-1.54,inactive
Neurod1 (neurogenic differentiation 1),5,qiagen single siRNA,-1.54,-1.16,-1.93,-1.54,inactive
Neurod1 (neurogenic differentiation 1),6,qiagen single siRNA,-7.44,-5.08,-9.8,-1.54,active
Ube3c (ubiquitin protein ligase E3C),1,ambion single siRNA,-0.604,-0.499,-0.708,-1.56,inactive
Ube3c (ubiquitin protein ligase E3C),2,ambion single siRNA,-1.8,-2.04,-1.56,-1.56,inactive
Ube3c (ubiquitin protein ligase E3C),3,ambion single siRNA,-3.9,-3.9,,-1.56,active
Ube3c (ubiquitin protein ligase E3C),4,qiagen single siRNA,0.712,-0.362,1.79,-1.85,inactive
Ube3c (ubiquitin protein ligase E3C),5,qiagen single siRNA,-2.14,-1.39,-2.89,-1.85,active
Ube3c (ubiquitin protein ligase E3C),6,qiagen single siRNA,-3.57,-2.3,-4.85,-1.85,active
Nagpa,1,ambion single siRNA,-0.305,0.0106,-0.62,-0.305,inactive
Nagpa,2,ambion single siRNA,-2.7,-2.83,-2.57,-0.305,active
Nagpa,3,ambion single siRNA,1.39,1.53,1.24,-0.305,inactive
Nagpa,4,qiagen single siRNA,1.36,0.352,2.36,-0.665,inactive
Nagpa,5,qiagen single siRNA,-0.665,-0.717,-0.612,-0.665,inactive
Nagpa,6,qiagen single siRNA,-5.07,-3.19,-6.95,-0.665,active
Rdh1 (retinol dehydrogenase 1 (all trans)),1,ambion single siRNA,-2.09,-2.23,-1.94,-0.397,active
Rdh1 (retinol dehydrogenase 1 (all trans)),2,ambion single siRNA,-0.397,-0.742,-0.0527,-0.397,inactive
Rdh1 (retinol dehydrogenase 1 (all trans)),3,ambion single siRNA,0.101,0.147,0.0557,-0.397,inactive
Rdh1 (retinol dehydrogenase 1 (all trans)),4,qiagen single siRNA,-0.0508,-0.73,0.628,-0.0508,inactive
Rdh1 (retinol dehydrogenase 1 (all trans)),5,qiagen single siRNA,3.67,4.18,3.16,-0.0508,active
Rdh1 (retinol dehydrogenase 1 (all trans)),6,qiagen single siRNA,-1.12,-1.26,-0.98,-0.0508,inactive
Rit2 (Ras-like without CAAX 2),1,ambion single siRNA,0.725,0.719,0.731,0.281,inactive
Rit2 (Ras-like without CAAX 2),2,ambion single siRNA,0.523,1.2,-0.157,0.281,inactive
Rit2 (Ras-like without CAAX 2),3,ambion single siRNA,-2.47,-3.85,-1.08,0.281,active
Rit2 (Ras-like without CAAX 2),4,qiagen single siRNA,1.56,2.44,0.672,-0.0942,inactive
Rit2 (Ras-like without CAAX 2),5,qiagen single siRNA,-0.521,-0.188,-0.854,-0.0942,inactive
Rit2 (Ras-like without CAAX 2),6,qiagen single siRNA,-0.593,-1.19,0,-0.0942,inactive
Etnppl (ethanolamine phosphate phospholyase),1,ambion single siRNA,-1.55,-1.83,-1.27,-1.55,inactive
Etnppl (ethanolamine phosphate phospholyase),2,ambion single siRNA,1.84,3.26,0.413,-1.55,inactive
Etnppl (ethanolamine phosphate phospholyase),3,ambion single siRNA,-4.58,-5.52,-3.63,-1.55,active
Etnppl (ethanolamine phosphate phospholyase),4,qiagen single siRNA,-0.678,-0.838,-0.517,-0.412,inactive
Etnppl (ethanolamine phosphate phospholyase),5,qiagen single siRNA,-0.0993,-0.544,0.345,-0.412,inactive
Etnppl (ethanolamine phosphate phospholyase),6,qiagen single siRNA,-0.21,-0.306,-0.114,-0.412,inactive

Sorted by “p65 translocation z-score, replicate 1” (highest first): some entries from above
gene symbol,reagent,siRNA vendor or control pool,"p65 translocation z-score, replicate mean","p65 translocation z-score, replicate 1","p65 translocation z-score, replicate 2","gene median z-score, per vendor",outcome
Nagpa,1,ambion single siRNA,-0.305,0.0106,-0.62,-0.305,inactive
Ube3c (ubiquitin protein ligase E3C),6,qiagen single siRNA,-3.57,-2.3,-4.85,-1.85,active
